Source: the M2OR odorant receptor database
Numbering of substitutions follows the chain as printed. This is a selection; strong and weak results do not stand in their true shares. The calls were merged from several studies; some rest on single wells. The list shows a part of the results.

Chains of the proteins cited; added tags and fusions are not shown. Chains listed by the source or under a name are the forms on record and can include a tag or linker.
OR8B4, as listed by the source: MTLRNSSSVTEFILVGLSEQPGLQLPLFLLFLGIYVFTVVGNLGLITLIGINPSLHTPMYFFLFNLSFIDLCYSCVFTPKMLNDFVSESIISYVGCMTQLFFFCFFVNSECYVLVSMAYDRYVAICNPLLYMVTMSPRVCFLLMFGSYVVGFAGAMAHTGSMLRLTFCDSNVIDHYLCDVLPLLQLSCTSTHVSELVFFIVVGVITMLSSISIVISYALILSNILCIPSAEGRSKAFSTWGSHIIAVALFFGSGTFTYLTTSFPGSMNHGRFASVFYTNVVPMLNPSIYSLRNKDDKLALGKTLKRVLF
OR8B3, as listed by the source: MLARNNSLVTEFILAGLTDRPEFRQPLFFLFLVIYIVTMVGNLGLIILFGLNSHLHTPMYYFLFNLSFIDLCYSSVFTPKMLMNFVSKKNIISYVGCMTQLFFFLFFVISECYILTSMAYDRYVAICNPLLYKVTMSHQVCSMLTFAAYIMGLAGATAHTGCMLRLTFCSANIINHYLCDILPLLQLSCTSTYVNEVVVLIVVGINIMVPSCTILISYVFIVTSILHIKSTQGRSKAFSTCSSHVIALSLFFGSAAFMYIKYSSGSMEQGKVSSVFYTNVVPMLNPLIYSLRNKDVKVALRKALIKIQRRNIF

Key:
Conditions in all cases: stereoisomer not certain
[1] = tested on: T1, OR8A1
T1 sequence (whole entry): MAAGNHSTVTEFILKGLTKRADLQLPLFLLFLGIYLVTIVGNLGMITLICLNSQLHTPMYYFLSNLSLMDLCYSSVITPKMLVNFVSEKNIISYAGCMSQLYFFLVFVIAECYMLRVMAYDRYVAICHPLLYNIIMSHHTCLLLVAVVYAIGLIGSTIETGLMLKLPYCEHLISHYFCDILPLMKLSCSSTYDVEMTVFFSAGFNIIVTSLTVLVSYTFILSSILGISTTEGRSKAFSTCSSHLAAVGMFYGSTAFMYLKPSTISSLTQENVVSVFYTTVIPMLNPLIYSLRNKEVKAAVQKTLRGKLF
Method in brief: (§1)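 Each receptor–molecule pair is labelled responsive or non-responsive (inactive) according to whether the original authors judged the measured signal statistically different from baseline. The data were taken from the main text and supplementary material of published papers and checked for typos and inconsistencies. Assay methods differed by source, with transient luciferase assays in mammalian cell lines being common.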

[2] = target: T2, OR8B12 (Homo sapiens) (UniProt Q8NGG6)
T2 sequence (whole entry): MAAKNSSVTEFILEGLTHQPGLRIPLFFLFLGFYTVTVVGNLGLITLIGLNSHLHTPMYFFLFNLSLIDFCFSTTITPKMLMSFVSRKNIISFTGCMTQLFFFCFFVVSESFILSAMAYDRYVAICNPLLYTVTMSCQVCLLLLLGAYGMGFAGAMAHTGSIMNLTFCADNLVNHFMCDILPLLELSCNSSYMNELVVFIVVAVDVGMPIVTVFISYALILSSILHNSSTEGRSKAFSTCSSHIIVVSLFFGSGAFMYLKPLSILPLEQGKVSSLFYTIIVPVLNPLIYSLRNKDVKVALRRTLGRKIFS
Method in brief: as §1

[3] = target: T3, OR8B2 (Homo sapiens) (UniProt Q96RD0)
T3 sequence (whole entry): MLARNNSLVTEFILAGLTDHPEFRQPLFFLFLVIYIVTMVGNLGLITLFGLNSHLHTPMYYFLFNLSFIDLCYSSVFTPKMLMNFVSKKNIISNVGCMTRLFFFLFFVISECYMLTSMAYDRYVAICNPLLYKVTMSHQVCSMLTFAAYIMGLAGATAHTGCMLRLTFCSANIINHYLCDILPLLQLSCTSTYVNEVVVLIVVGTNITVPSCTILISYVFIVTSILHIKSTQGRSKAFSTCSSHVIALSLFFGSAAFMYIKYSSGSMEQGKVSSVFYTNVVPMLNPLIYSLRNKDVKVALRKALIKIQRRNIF
Method in brief: as §1

[4] = tested on: T4, OR8B3
T4 sequence (whole entry): T3 sequence (whole entry) with H20R, T47I, N94Y, R100Q, M114I, T205I, T208M
Method in brief: as §1

[5] = tested on: T5, OR8B4
T5 sequence (whole entry): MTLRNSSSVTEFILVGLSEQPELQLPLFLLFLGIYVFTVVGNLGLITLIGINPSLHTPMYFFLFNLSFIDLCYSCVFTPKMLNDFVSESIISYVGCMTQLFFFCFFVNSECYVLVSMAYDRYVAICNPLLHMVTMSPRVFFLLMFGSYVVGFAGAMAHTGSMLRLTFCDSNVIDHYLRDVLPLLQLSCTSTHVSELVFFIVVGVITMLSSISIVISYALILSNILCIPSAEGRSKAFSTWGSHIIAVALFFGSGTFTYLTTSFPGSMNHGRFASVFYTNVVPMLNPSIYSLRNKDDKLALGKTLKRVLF
Method in brief: as §1

[6] = tested on: T6, OR8B4; remark: listed apart in the source
T6 sequence (whole entry): T5 sequence (whole entry) with E22G, H131Y, F140C, R178C
Method in brief: as §1

[7] = target: T7, OR8B8 (Homo sapiens) (UniProt Q15620)
T7 sequence (whole entry): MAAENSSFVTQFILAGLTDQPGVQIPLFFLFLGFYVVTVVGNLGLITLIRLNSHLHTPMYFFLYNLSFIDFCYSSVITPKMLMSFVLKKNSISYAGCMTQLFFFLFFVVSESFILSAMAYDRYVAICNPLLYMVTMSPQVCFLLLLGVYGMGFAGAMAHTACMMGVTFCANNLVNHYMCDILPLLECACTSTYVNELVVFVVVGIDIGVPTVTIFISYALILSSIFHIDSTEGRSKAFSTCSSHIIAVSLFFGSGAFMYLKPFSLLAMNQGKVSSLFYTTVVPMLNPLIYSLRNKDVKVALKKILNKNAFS
Method in brief: as §1

[8] = tested on: T8, OR8B8
T8 sequence (whole entry): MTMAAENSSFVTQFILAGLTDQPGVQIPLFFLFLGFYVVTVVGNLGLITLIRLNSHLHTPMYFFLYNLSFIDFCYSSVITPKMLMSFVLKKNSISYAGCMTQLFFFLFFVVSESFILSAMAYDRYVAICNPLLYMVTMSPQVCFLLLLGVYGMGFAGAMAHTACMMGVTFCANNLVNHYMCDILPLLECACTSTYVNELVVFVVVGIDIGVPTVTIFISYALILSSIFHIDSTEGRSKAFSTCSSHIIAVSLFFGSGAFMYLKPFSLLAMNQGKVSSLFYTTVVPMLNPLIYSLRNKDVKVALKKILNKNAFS
Method in brief: as §1

[9] = target: T9, OR8D1 (Homo sapiens) (UniProt Q8WZ84)
T9 sequence (whole entry): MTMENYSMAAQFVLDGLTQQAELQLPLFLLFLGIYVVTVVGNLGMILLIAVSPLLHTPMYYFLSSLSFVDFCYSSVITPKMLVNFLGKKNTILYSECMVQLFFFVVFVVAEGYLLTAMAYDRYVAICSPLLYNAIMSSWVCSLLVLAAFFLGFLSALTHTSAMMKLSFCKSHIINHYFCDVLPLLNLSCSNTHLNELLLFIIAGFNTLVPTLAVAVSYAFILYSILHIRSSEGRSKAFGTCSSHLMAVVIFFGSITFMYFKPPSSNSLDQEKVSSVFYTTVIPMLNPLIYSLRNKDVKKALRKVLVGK
Method in brief: as §1

[10] = target: T10, OR8D2 (Homo sapiens) (UniProt Q9GZM6)
T10 sequence (whole entry): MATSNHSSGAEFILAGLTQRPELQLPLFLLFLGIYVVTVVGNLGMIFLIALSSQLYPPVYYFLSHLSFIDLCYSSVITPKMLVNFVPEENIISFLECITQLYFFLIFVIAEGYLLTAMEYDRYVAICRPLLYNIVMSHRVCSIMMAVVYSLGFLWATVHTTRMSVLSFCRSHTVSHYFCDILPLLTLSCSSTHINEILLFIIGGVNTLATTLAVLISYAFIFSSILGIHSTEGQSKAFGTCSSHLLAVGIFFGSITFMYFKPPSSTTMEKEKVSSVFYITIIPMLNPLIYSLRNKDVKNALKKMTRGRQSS
Method in brief: as §1

[11] = tested on: T11, OR8D4
T11 sequence (whole entry): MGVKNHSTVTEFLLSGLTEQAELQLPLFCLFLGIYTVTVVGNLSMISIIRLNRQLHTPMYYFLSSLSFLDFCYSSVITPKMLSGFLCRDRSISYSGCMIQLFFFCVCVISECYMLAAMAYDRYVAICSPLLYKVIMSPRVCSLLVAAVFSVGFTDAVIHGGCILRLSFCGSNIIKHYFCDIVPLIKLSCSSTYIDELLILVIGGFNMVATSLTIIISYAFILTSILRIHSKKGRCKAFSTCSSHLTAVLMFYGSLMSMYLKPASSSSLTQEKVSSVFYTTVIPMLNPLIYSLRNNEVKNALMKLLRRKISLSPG
Method in brief: as §1

[12] = target: T12, OR8G1 (Homo sapiens) (UniProt Q15617)
T12 sequence (whole entry): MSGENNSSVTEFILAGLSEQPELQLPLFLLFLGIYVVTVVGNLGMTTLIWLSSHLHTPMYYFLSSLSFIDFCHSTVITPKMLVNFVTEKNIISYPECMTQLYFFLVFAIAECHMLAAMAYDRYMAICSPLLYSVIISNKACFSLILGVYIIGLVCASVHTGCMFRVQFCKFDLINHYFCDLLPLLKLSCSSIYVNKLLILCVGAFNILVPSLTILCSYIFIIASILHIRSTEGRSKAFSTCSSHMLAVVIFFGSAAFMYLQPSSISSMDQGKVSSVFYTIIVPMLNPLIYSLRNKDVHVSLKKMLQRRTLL
Method in brief: as §1

[13] = target: T13, OR8G5 (Homo sapiens) (UniProt Q8NG78)
T13 sequence (whole entry): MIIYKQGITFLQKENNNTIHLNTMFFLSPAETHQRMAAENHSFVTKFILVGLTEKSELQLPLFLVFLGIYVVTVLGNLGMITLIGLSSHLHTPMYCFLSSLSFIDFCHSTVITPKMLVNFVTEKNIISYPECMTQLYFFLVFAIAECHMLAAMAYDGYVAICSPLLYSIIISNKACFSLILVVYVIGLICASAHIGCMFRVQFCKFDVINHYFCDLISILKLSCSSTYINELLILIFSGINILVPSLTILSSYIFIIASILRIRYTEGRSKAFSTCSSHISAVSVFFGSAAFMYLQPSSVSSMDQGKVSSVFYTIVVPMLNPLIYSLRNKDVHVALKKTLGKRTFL
Method in brief: as §1

[14] = tested on: T14, OR8G5
T14 sequence (whole entry): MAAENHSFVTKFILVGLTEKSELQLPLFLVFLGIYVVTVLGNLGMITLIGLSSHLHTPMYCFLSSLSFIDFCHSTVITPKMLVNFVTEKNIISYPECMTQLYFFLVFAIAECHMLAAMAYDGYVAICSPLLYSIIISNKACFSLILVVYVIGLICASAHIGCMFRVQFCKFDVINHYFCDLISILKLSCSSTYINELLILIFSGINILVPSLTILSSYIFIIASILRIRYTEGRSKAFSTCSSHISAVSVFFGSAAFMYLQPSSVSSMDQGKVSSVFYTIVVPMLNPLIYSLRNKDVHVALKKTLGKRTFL
Method in brief: as §1

[15] = target: T15, OR8H1 (Homo sapiens) (UniProt Q8NGG4)
T15 sequence (whole entry): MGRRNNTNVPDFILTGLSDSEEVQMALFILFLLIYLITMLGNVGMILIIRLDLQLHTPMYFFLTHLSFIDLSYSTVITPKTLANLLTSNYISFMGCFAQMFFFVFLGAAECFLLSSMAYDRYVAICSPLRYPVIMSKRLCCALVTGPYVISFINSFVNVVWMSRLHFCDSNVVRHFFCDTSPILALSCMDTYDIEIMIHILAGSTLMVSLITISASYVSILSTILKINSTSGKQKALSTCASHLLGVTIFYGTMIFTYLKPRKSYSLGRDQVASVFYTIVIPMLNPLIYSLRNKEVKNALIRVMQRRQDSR
Method in brief: as §1

[16] = tested on: T16, OR8H2
T16 sequence (whole entry): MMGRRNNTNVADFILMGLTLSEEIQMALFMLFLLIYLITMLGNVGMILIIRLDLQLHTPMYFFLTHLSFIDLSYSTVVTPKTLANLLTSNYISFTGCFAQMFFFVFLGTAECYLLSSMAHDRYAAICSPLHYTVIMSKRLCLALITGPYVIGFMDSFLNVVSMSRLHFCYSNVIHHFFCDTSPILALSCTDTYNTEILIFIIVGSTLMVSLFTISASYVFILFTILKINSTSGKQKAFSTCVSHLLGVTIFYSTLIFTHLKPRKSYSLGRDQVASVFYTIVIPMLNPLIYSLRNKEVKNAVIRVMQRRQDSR
Method in brief: as §1
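Note: active if original authors judged signal statistically different from baseline.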

Structure (SMILES)	odorant receptor agonist call [1]	odorant receptor agonist call [2]	odorant receptor agonist call [3]	odorant receptor agonist call [4]	odorant receptor agonist call [5]	odorant receptor agonist call [6]	odorant receptor agonist call [7]	odorant receptor agonist call [8]	odorant receptor agonist call [9]	odorant receptor agonist call [10]	odorant receptor agonist call [11]	odorant receptor agonist call [12]	odorant receptor agonist call [13]	odorant receptor agonist call [14]	odorant receptor agonist call [15]	odorant receptor agonist call [16]
C=CCc1ccc(OC)c(OC)c1	inactive	inactive	active	inactive	inactive	inactive	inactive	inactive	inactive	inactive	inactive	inactive	inactive	inactive	inactive	inactive
CC(C)CCC(=O)O	inactive	inactive	inactive	inactive	inactive	inactive	inactive	inactive	inactive	inactive	inactive	inactive	inactive	inactive	inactive	inactive
C=CC(C)(O)CCC=C(C)C (stereo not given)	inactive	inactive	inactive	inactive	inactive	inactive	inactive	inactive	inactive	inactive	inactive	inactive	inactive	inactive	inactive	inactive
CCC=CCCO	inactive	inactive	inactive	inactive	inactive	inactive	inactive	inactive	inactive	inactive	inactive	inactive	inactive	inactive	inactive	inactive
CCCCCC(C)=O	inactive	–	–	–	inactive	inactive	inactive	inactive	inactive	inactive	inactive	inactive	active	inactive	inactive	inactive
CCCCCCCC=CC=O	inactive	inactive	inactive	inactive	inactive	inactive	inactive	inactive	inactive	inactive	inactive	inactive	inactive	inactive	inactive	inactive
O=C1CCCCCCCCCCCC(=O)OCCO1	inactive	inactive	inactive	inactive	inactive	inactive	inactive	inactive	inactive	inactive	inactive	inactive	inactive	inactive	inactive	inactive
C=C(C)C1CCC2=CC(=O)CC(C)C2(C)C1 (stereo not given)	–	active	inactive	inactive	–	–	–	–	–	–	–	–	–	–	–	–
C=C(C)C1CC=C(C)C(=O)C1 (stereo not given)	–	–	inactive	active	–	–	–	–	inactive	–	–	–	–	–	–	–
COC(=O)c1ccccc1	inactive	–	–	–	inactive	inactive	inactive	inactive	inactive	inactive	active	inactive	inactive	inactive	inactive	inactive
CCCCCC(=O)O	inactive	inactive	inactive	inactive	inactive	inactive	inactive	inactive	inactive	inactive	inactive	inactive	inactive	inactive	inactive	inactive
CC1=NC(C)SC1C (stereo not given)	inactive	–	–	–	inactive	inactive	inactive	inactive	inactive	inactive	inactive	inactive	inactive	inactive	inactive	inactive
CCCCCCCCOC(C)=O	inactive	inactive	inactive	inactive	inactive	inactive	inactive	inactive	inactive	inactive	inactive	inactive	inactive	inactive	inactive	inactive
CC12C=CCC1C1CCC3=CC(=O)CCC3(C)C1CC2 (stereo not given)	inactive	inactive	inactive	inactive	inactive	inactive	inactive	inactive	inactive	inactive	inactive	inactive	inactive	inactive	inactive	inactive
COc1ccccc1O	inactive	inactive	inactive	inactive	inactive	inactive	inactive	inactive	inactive	inactive	inactive	inactive	inactive	inactive	inactive	inactive

Single records, from the list above. Values in the order: odorant receptor agonist call [1]	odorant receptor agonist call [2]	odorant receptor agonist call [3]	odorant receptor agonist call [4]	odorant receptor agonist call [5]	odorant receptor agonist call [6]	odorant receptor agonist call [7]	odorant receptor agonist call [8]	odorant receptor agonist call [9]	odorant receptor agonist call [10]	odorant receptor agonist call [11]	odorant receptor agonist call [12]	odorant receptor agonist call [13]	odorant receptor agonist call [14]	odorant receptor agonist call [15]	odorant receptor agonist call [16]
`C=CC(C)(O)CCC=C(C)C` (stereo not given) is entered as inactive	inactive	inactive	inactive	inactive	inactive	inactive	inactive	inactive	inactive	inactive	inactive	inactive	inactive	inactive	inactive
`CCCCCC(C)=O` is entered as inactive	–	–	–	inactive	inactive	inactive	inactive	inactive	inactive	inactive	inactive	active	inactive	inactive	inactive
